Assay results from paper PMC4686657.

Chains of the proteins cited; added tags and fusions are not shown.
UniProt Q61501: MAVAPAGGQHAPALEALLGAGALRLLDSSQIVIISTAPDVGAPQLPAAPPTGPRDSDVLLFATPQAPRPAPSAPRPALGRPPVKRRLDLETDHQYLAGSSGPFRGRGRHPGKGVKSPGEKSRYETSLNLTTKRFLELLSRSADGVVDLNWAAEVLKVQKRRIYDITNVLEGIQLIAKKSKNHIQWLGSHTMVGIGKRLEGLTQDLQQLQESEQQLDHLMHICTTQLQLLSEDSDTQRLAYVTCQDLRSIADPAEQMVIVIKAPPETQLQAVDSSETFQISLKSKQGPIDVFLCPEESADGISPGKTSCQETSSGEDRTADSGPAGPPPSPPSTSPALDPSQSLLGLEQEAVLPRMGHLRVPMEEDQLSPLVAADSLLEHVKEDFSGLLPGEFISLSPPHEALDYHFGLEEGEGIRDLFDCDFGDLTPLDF
UniProt O35261: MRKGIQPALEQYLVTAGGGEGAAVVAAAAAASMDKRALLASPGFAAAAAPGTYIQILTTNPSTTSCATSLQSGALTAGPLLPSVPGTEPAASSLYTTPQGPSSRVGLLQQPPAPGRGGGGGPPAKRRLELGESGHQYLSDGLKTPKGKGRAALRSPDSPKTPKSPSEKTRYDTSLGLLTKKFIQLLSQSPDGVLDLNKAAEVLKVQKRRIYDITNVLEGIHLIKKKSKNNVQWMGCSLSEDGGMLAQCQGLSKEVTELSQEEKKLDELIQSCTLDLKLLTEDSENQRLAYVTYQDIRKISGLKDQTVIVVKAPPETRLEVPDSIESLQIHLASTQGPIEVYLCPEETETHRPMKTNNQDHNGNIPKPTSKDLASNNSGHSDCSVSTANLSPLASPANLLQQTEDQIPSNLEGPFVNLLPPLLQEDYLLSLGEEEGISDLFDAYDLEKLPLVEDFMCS
UniProt Q9WTM5: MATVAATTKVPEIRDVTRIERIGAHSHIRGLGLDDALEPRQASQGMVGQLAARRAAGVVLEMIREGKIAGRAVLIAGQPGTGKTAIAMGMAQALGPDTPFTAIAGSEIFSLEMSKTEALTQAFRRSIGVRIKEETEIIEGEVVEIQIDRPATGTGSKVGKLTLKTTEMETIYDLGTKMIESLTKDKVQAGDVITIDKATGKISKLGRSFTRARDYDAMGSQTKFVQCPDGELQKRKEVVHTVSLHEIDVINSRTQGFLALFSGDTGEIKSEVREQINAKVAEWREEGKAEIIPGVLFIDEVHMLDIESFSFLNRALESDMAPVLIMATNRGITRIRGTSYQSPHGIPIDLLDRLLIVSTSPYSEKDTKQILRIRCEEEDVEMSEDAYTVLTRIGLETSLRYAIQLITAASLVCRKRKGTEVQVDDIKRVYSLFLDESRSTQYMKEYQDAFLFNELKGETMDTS
UniProt P60122: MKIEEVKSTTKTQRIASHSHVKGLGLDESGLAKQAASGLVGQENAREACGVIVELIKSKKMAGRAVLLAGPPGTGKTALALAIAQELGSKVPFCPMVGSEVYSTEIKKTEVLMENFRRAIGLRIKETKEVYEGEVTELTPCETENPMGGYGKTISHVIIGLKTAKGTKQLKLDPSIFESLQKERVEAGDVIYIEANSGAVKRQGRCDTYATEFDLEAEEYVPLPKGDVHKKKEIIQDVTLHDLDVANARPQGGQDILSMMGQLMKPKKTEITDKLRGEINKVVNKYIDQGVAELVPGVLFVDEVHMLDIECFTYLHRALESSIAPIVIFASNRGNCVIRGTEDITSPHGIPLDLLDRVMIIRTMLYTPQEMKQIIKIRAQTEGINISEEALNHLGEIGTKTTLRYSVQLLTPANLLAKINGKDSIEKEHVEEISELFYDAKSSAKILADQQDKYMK

Columns and labels:
[1] = target: E2f1 (mouse (endogenous in TKO HCC cells)) (UniProt Q61501); test: affinity purification with mass spectrometry; endogenous E2f1 and E2f3 immunoprecipitated from TKO HCC cell lysates (HEPES lysis buffer, Protein A Sepharose, 4 °C); SDS-PAGE slices, trypsin, LC-MS/MS; n=3
[2] = target: E2f3 (mouse (endogenous in TKO HCC cells)) (UniProt O35261); test: as above

binding [1] | binding [2] | Molecule
binds | no binding | Reptin (from UniProt Q9WTM5 1-463)
binds | no binding | Pontin (from UniProt P60122 1-456)
binds | binds | Dp1 (protein, UniProt Q08639 1-410) MAKDASLIEANGELKVFIDQNLSPGKGVVSLVAVHPSTVNTLGKQLLPKTFGQSNVNITQQVVIGTPQRPAASNTIVVGSPHTPNTHFVSQNQTSDSSPWSAGKRNRKGEKNGKGLRHFSMKVCEKVQRKGTTSYNEVADELVAEFSAADNHILPNESAYDQKNIRRRVYDALNVLMAMNIISKEKKEIKWIGLPTNSAQECQNLEVERQRRLERIKQKQSQLQELILQQIAFKNLVQRNRQAEQQARRPPPPNSVIHLPFIIVNTSRKTVIDCSISNDKFEYLFNFDNTFEIHDDIEVLKRMGMACGLESGNCSAEDLKVARSLVPKALEPYVTEMAQGSIGGVFVTTTGSTSNGTRLSASDLSNGADGMLATSSNGSQYSGSRVETPVSYVGEDDDDDDDFNENDEED

These are yes or no findings as the source states them, for the method shown. In cells and extracts the contact can be indirect. A yes stands for co-enrichment or nearness to the bait. Other partners may have been found. For part of these data: A no says only that the protein was not detected with the bait.
